Experimental data as given in patent publication US20200062789A1, “HYDROXAMIC ACID PRODRUG COMPOUND OR SALT THEREOF, LYOPHILIZED FORMULATION, LPXC INHIBITOR, AND ANTIBACTERIAL AGENT” (FUJIFILM Toyama Chemical Co., Ltd., priority 2017, published 2020).
Some results were stated once for a whole list of compounds, not compound by compound.

System: Pseudomonas aeruginosa (S-2838 strain)
Experiment: Multidrug-resistant Pseudomonas aeruginosa urinary tract infection model test in mice
Type: in vivo
Details: ICR female mice, kidney count on the day after infection
Procedure: The mice used were ICR female SPF mice (5 weeks old: 5 mice per group). The inoculum solution was prepared by suspending a clinical isolate of Pseudomonas aeruginosa (S-2838 strain) cultured overnight at 37° C. on a Mueller-Hinton agar plate in sterile saline. The infection was induced by inoculating 0.2 mL (about 10^3 CFU/mouse) of the inoculum solution into the urethra of each mouse. The test compound was dissolved in sterile saline and given once by tail vein administration 2 hours after infection. The count of viable cells in the kidney on the day after infection was recorded and the mean value was calculated.

SMILES | decrease of count of viable cells in the kidney compared with control group (12.5 mg/kg once by tail vein 2 hours after infection) [log CFU/kidney] | decrease of count of viable cells in the kidney compared with control group (25 mg/kg once by tail vein 2 hours after infection) [log CFU/kidney]
CNC(=O)[C@@](C)(C(=O)NOP(=O)(O)O)N(C)C(=O)c1ccc(C#Cc2ccc([C@H](O)CO)cc2)cc1 [Example 1, (((S)-2-(4-((4-((S)-1,2-dihydroxyethyl)phenyl)ethynyl)-N-methylbenzamide)-2-methyl-3-(methylamino)-3-oxopropanamide)oxy)phosphonic acid] | ≥ 4 | 
CNC(=O)[C@@](C)(C(=O)NOCOP(=O)(O)O)N(C)C(=O)c1ccc(C#Cc2ccc([C@H](O)CO)cc2)cc1 [Example 2, (((S)-2-(4-((4-((S)-1,2-dihydroxyethyl)phenyl)ethynyl)-N-methylbenzamide)-2-methyl-3-(methylamino)-3-oxopropanamide)oxy)methyl dihydrogen phosphate] |  | ≥ 4
